For this experiment, the target named is human-CD40 monomer (human) (UniProt P25942). Nature of the experiment: SPR 2 pt screen.

Protein sequences, listed by entry. Tags and fused reporters are not part of them. Lines headed by an entry give the natural chain unless they say otherwise; changes in a name come on top.
UniProt P25942: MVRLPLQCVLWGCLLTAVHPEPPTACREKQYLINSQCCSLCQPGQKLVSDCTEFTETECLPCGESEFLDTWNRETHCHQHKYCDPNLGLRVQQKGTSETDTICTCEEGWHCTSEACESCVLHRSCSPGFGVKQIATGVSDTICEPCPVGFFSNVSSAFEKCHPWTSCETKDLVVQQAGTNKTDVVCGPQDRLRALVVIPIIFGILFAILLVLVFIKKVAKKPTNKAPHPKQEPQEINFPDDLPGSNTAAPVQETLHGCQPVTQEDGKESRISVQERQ

These results are taken from patent US20230322941A1.

Changes are numbered by the printed parent chain. No constants are given. Whether binding was seen depends on the method and setting. Some entries that bind do so weakly or less than the wild type.

B1: chimeric Y1238 supernatant (HC-Chim / LC-Chim) (antibody, V domains shown)
VH: QVQLQQSGAELVRPGTSVKVSCKASGYAFTNYLIEWVKQRPGQGLEWIGVINPGSGGTNYNEKFKGKATLTADKSSSTAYMQLSSLTSDDSAVYFCARSQLGRRFDYWGQGTTLTVSS
VL: DIVMTQSHKFMSTSVGDRVSITCKASQDVRTGVAWYQQKPGQSPKLLIYSASYRNTGVPDRFTGSRSGTDFTFTISSVQAEDLAVYYCQQHYSPPYTFGGGTKLEIK
As for B1, the binding entry was “binds”.

B2: humanized Y1238 hz48 (hz-HC10/hz-LC3) (antibody, IgG1, V domains shown)
VH: QVQLVQSGAEVKKPGASVKVSCKASGYAFTNYLIEWVRQRPGQGLEWMGVINPGSGGTNYNEKFKGRVTMTRDKSISTAYMELSRLRSDDTAVYYCARSQLGRRFDYWGQGTLVTVSS
VL: DIQMTQSPSSLSASVGDRVTITCKASQDVRTGVAWYQQKPGQSPKLLIYSASYRNTGVPSRFSGSRSGTDFTFTISSLQPEDIAVYYCQQHYSPPYTFGGGTKVEIK
In the case of B2, the binding entry is listed as “binds”.

B3: humanized Y1238 hz53 (hz-HC11/hz-LC3) (antibody, IgG1, V domains shown)
VH: B2 VH with I76S, Y95F
VL: B2 VL
Turning to B3, the binding entry is reported as “binds”.

B4: humanized Y1238 hz52 (hz-HC11/hz-LC2) (antibody, IgG1, V domains shown)
VH: B2 VH with I76S, Y95F
VL: B2 VL with Q42K, S43A, V85T
For B4, the binding entry is “binds”.

B5: humanized Y1238 hz50 (hz-HC10/hz-LC5) (antibody, IgG1, V domains shown)
VH: B2 VH
VL: B2 VL with S43A
Regarding B5, the binding entry was “binds”.

B6: humanized Y1238 hz49 (hz-HC10/hz-LC4) (antibody, IgG1, V domains shown)
VH: B2 VH
VL: B2 VL with P80A
As to B6, the binding result is reported as “binds”.

B7: humanized Y1238 hz54 (hz-HC11/hz-LC4) (antibody, IgG1, V domains shown)
VH: B2 VH with I76S, Y95F
VL: B2 VL with P80A
As for B7, the binding result is reported as “binds”.

B8: humanized Y1238 hz51 (hz-HC11/hz-LC1) (antibody, IgG1, V domains shown)
VH: B2 VH with I76S, Y95F
VL: B2 VL with Q42K, S43A, R66G, V85T
For B8, the binding entry was “binds”.

B9: humanized Y1238 hz55 (hz-HC11/hz-LC5) (antibody, IgG1, V domains shown)
VH: B2 VH with I76S, Y95F
VL: B2 VL with S43A
As to B9, the binding result was “binds”.
